At least one compound was matched to its structure with a doubt left.
System: subjects with acute CHF and renal impairment
Test: Administration of KW-3902 and an anticonvulsant in subjects with acute CHF and renal impairment (randomized, placebo-controlled)
Assay type: in vivo, human

**Q.** Which “change in mean serum creatinine levels” value (30 mg KW-3902, Day 14, placebo showed mean increase, FIG. 2) does the source give for `CCCn1c(=O)c2[nH]c(C34CC5CC(CC3C5)C4)nc2n(CCC)c1=O` [KW-3902, 8-(3-noradamantyl)-1,3-dipropylxanthine] here?
**A.** overall decrease

**Q.** What about the “percentage of "Success" subjects so characterized over time” value (30 mg KW-3902 vs placebo, by Day 7, FIG. 4) of the same compound?
**A.** higher percentage

**Q.** And the “percentage of subjects with worsening renal function” value (30 mg KW-3902 vs placebo, days 2 through 7, FIG. 6)?
**A.** higher percentage of subjects were identified as having worsening renal function in the placebo treatment group

**Q.** And the “percentage of subjects with worsening heart failure” value (KW-3902 groups vs placebo, by Day 7, FIG. 5)?
**A.** higher percentage of subjects were identified as having worsening heart failure in the placebo treatment group

**Q.** And the “percentage of subjects reporting moderate or marked improvement in dyspnea” value (KW-3902 groups vs placebo, FIG. 3)?
**A.** greater percentage

**Q.** What about the weight loss (KW-3902 vs placebo, days 2, 3 and 4, FIG. 8) of the same compound?
**A.** greater mean weight loss

**Q.** And the “percentage of patients discharged from hospital on days 2 or 3” value (KW-3902 vs placebo, FIG. 7)?
**A.** greater percentage of patients were discharged

**Q.** And the “persistence of effect on renal function (serum creatinine improvement)” value (administered only Days 1, 2 and 3, improvement observed on Day 14)?
**A.** persistent effect on renal function

**Q.** What about the “percentage of subjects classified as "Failure"” value (all three KW-3902 treatment groups (10 mg, 20 mg, 30 mg IV per day) vs placebo, FIG. 1) of the same compound?
**A.** reduced
